Publication doi:10.1101/2021.08.18.456771
These are yes or no findings as the source states them, for the method shown. In cells and extracts the contact can be indirect. Some binding calls cover weakened binding; strength is not graded here. Sequences can lack the tags named with a protein.

Amino acid sequences for entries named in this document (tags omitted).
UniProt Q01196: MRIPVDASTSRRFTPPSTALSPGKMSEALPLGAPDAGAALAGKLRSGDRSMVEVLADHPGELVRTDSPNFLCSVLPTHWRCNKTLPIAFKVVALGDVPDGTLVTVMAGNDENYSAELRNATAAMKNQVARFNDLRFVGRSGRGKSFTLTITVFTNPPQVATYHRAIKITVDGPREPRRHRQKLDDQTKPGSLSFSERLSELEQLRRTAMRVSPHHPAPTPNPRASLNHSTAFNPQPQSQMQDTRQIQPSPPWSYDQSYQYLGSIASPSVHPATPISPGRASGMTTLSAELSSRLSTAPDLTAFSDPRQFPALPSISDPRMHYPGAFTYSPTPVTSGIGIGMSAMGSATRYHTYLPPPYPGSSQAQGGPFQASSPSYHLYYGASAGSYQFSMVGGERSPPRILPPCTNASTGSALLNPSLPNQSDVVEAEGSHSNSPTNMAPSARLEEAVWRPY

Columns and labels:
[1] = target: T1, Myc-VGLL3 (UniProt A8MV65); assay: co-IP
T1 sequence: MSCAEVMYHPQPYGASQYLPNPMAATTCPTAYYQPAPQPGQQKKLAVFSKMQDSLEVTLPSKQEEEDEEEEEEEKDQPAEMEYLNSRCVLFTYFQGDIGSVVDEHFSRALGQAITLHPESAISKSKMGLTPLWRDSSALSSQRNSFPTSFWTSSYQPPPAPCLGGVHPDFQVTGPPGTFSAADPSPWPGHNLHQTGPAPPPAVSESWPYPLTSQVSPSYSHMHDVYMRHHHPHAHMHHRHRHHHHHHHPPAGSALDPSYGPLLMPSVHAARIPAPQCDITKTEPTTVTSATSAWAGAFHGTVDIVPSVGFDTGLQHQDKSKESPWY

[2] = target: T2, FLAG-VGLL3 (stably expressed in MelJuSo cells) (UniProt A8MV65); assay: co-IP
T2 sequence: T1 sequence

binding [1] | binding [2] | Substance
binds |  | HA-RUNX1 (from UniProt Q01196 1-453)
 | binds | RUNX1 (endogenous) (from UniProt Q01196 1-453)
